For some assays here: For at least one entry, the source does not settle the construct or the ends of the probe. For some assays here: At least one result comes from cells or an extract, where the contact may be indirect.

Series [1] relates to Sm core proteins (HeLa cytoplasmic extract) (Homo sapiens). Briefly: EMSA. The following applies: Sm core assembly, less efficient than full length; lost on SMN depletion; protein in an extract; label: 32P-UTP. For orientation: A gel shift assay detects complexes by their altered migration in electrophoresis.
The test system of series [2] is SMN complex (native, flag-Gemin2 purified + SMN, Gemins) (Homo sapiens). The series can be described thus: pull-down. The following applies: phosphorothioate interference at U76, U78; purified native protein; label: 32P-UTP.

With AUUUUUG [HSUR5-60 (nt 60-114)], the binding result in series [1] and in series [2] was “binds” in each case.

The record behind these values is patent publication US20080194027.
